Experimental data as given in PubChem BioAssay AID248 (DTP/NCI, 2004).
The list does not hold the whole screen: it gathers tests that were run many times, whatever their T/C, doses with no T/C, and many T/C values between a quarter and a half above the control. Further doses and runs are listed elsewhere. T/C is the treated group as % of the vehicle group. Some doses have a count of surviving animals in place of a T/C: the source files T/C as zero there, which appears to mark a toxic dose or a test without result, not a measured value. Some survivor counts are full or nearly so, which does not show that the dose was tolerated: survival well below the control is almost never listed, so the zero probably covers shortened survival too. Counts of survivors are from the toxicity check (mostly the fifth day) where no day follows; animals may have died later. Schedule codes are those of the source, read here as Q, the interval in days (D) or hours (H), X, the number of doses. Some entries hold several experiments; the results are listed from low to high. Some schedules carry Z or #; the key to these is not given. Where survival is the endpoint, this PubChem deposit counts one and a half times the control or more as active, and values a quarter to a half above the control carry no call in these data; other NCI protocols may use other cut-offs. Some T/C values carry the count of animals alive at the toxicity check (mostly the fifth day); without a count, all were alive then.

Tested on: L1210 leukemia ip in BDF1 mice, survival T/C
Test: NCI In Vivo Anticancer Drug Screen. Data for tumor model L1210 Leukemia (intraperitoneal) in B6D2F1 (BDF1) mice
Details: T/C endpoint: mean survival time, higher T/C = longer survival

For `COc1ccc2c(c1)N(CCC1CCCCN1C)c1ccccc1S2` (centres undefined), the T/C (dose: 25.0 mg/kg/injection, schedule: Q01DX009 (ip), vehicle: saline) was 126 % of control [5 of 6 alive], the survivor count (dose: 50.0 mg/kg/injection, schedule: Q01DX009 (ip), vehicle: saline) was 0 of 6 and 3 of 6 and the survivor count (dose: 100.0 mg/kg/injection, schedule: Q04DX003 (ip), vehicle: saline) was 3 of 6 and 6 of 6.
`C=COC(=O)NC(C(=O)O)C(C)C` (centres undefined) was tested, and the survivor count (dose: 200.0 mg/kg/injection, schedule: Q01DX001 (ip), vehicle: saline) was 2 of 6 and the survivor count (dose: 400.0 mg/kg/injection, schedule: Q01DX001 (ip), vehicle: saline) was 0 of 6.
For `CNCC(=O)Nc1ccc(NC(=O)CNC)cc1`, the survivor count (dose: 400.0 mg/kg/injection, schedule: Q04DX002 (ip), vehicle: Klucel (hydroxypropylcellulose) (HPC)) was 0 of 3.
For `c1ccc2nc(NN=C3CCCCC3)ccc2c1`, the survivor count (dose: 75.0 mg/kg/injection, schedule: Q01DX001 (ip), vehicle: saline) was 2 of 6, the survivor count (dose: 150.0 mg/kg/injection, schedule: Q01DX001 (ip), vehicle: saline) was 0 of 6 and the survivor count (dose: 300.0 mg/kg/injection, schedule: Q01DX001 (ip), vehicle: saline) was 0 of 6.
In the case of `CCCC(C)OP(=O)(OCC)OC(C)CC` (centres undefined), the survivor count (dose: 400.0 mg/kg/injection, schedule: Q01DX009 (ip), vehicle: Klucel (hydroxypropylcellulose) (HPC)) is reported as 0 of 6.
In the case of `CC(=O)OCC1OC(n2ccc3c(=O)[nH]cnc32)C(OC(C)=O)C1OC(C)=O` (centres undefined), the survivor count (dose: 100.0 mg/kg/injection, schedule: Q01DX015 (ip), vehicle: carboxymethylcellulose (CMC)) is reported as 5 of 6.
For `O=CNNc1ccccc1`, the survivor count (dose: 400.0 mg/kg/injection, schedule: Q04DX003 (ip), vehicle: Klucel (hydroxypropylcellulose) (HPC)) was 4 of 6.
With `N=C(N)N=Nc1ccc(NN=C(N)N)c2ccccc12` the survivor count (dose: 60.0 mg/kg/injection, schedule: Q01DX Z (ip), vehicle: saline) was 3 of 6 and the survivor count (dose: 120.0 mg/kg/injection, schedule: Q01DX Z (ip), vehicle: saline) was 0 of 6.
